Results published in publication PMC10499038.
These are yes or no findings as the source states them, for the method shown. In cells and extracts the contact can be indirect. Some entries that bind do so weakly or less than the wild type. For part of these data: Sequences can lack the tags named with a protein.

What was measured:
Assay in all cases: co-IP
[1] = target: T1, CD3δ-CFP (UniProt P04235)
T1 sequence: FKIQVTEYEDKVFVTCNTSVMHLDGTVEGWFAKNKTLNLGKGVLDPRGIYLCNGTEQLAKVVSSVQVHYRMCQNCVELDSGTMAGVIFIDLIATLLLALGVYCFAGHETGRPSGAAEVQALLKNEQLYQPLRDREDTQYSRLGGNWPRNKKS

[2] = target: T2, Cerulean-vIL-6 (HHV-8)
T2 sequence: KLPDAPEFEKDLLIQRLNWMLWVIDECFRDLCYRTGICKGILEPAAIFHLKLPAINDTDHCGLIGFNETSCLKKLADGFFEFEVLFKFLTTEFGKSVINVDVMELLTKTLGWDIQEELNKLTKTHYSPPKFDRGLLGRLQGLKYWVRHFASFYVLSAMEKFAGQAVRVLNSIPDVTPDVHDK

[3] = target: T3, GFP-CNX (human) (UniProt P27824)
T3 sequence: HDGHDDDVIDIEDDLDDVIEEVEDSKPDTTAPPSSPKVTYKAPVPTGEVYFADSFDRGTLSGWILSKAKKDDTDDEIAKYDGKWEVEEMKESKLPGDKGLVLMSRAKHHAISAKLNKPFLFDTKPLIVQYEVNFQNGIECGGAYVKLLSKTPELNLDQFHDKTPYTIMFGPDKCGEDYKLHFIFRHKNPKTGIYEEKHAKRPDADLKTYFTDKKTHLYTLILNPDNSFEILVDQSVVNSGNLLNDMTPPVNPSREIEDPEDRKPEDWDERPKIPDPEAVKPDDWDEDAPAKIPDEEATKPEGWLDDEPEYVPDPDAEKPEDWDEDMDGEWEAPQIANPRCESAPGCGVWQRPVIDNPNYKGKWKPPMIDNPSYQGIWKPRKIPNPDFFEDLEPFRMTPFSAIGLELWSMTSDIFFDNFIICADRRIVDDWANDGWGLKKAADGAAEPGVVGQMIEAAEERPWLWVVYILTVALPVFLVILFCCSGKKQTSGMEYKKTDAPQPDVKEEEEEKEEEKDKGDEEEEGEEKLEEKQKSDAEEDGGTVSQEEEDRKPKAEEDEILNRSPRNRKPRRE

Measured: binding

B1: calnexin (CNX), endogenous in N2a cells (protein, UniProt P35564 21-591)
chain: HDGHDDDAIDIEDDLDDVIEEVEDSKSKSDASTPPSPKVTYKAPVPTGEVYFADSFDRGSLSGWILSKAKKDDTDDEIAKYDGKWEVDEMKETKLPGDKGLVLMSRAKHHAISAKLNKPFLFDTKPLIVQYEVNFQNGIECGGAYVKLLSKTAELSLDQFHDKTPYTIMFGPDKCGEDYKLHFIFRHKNPKTGVYEEKHAKRPDADLKTYFTDKKTHLYTLILNPDNSFEILVDQSVVNSGNLLNDMTPPVNPSREIEDPEDRKPEDWDERPKIADPDAVKPDDWDEDAPSKIPDEEATKPEGWLDDEPEYIPDPDAEKPEDWDEDMDGEWEAPQIANPKCESAPGCGVWQRPMIDNPNYKGKWKPPMIDNPNYQGIWKPRKIPNPDFFEDLEPFKMTPFSAIGLELWSMTSDIFFDNFIISGDRRVVDDWANDGWGLKKAADGAAEPGVVLQMLEAAEERPWLWVVYILTVALPVFLVILFCCSGKKQSNAMEYKKTDAPQPDVKDEEGKEEEKNKRDEEEEEEKLEEKQKSDAEEDGVTGSQDEEDSKPKAEEDEILNRSPRNRKPRRE
binds: [1] | [2] | [3]
